This is an account of results in the supplement of paper PMC4635364.

Assay [1] relates to ReNCell VM. Description: neuronal differentiation score (DCX+ cell fraction vs untreated, manual image score) (score (-3 to 3)); higher = more neuronal differentiation. The note with it: 2 uM, 2 weeks.
Assay [2] has as its system ReNCell VM. Description: dopaminergic neuron differentiation score (TH+ cell fraction vs untreated, manual image score) (score (0 to 3)); higher = more TH+ dopaminergic neuron differentiation. Particulars: 2 uM, 4 weeks, BDNF 10 ng/ml + GDNF 10 ng/ml.

Structures can show the parent of a compound that is named as a salt. This is one part of the list. Single values are uncertain here, since repeats match poorly.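 Human fetal ventral-midbrain neural progenitor line ReNCell VM, differentiated without mitogens. Images stained for doublecortin (early neurons) or tyrosine hydroxylase (dopaminergic neurons) were scored by blinded raters against untreated wells (0 = no change). Repeats and both raters were averaged, and compounds averaging 2 or higher were picked as hits for retesting.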

Turning to `CCC[C@@H]1C[C@@H](C(=O)N[C@@H]([C@H]2O[C@H](SC)[C@H](O)[C@@H](O)[C@H]2O)[C@H](C)Cl)N(C)C1`, the neuronal differentiation score in assay [1] (library: Spectrum) is inactive: 0. Further, the “dopaminergic neuron differentiation score” value in assay [2] (library: Spectrum) was inactive: 1.
On the same counts, the results for `CN(C(=O)CN(CCO)CC(=O)N(C)C(C)(C)Cc1ccccc1)C(C)(C)Cc1ccccc1` are inactive: 1 and inactive: 0.
In the case of `NC(N)=N[C@@H](CCC(=O)O)C(=O)O` [alpha-Guanidinoglutaric acid], in assay [1] (library: LOPAC), the neuronal differentiation score is inactive: 0. For the same molecule, the “dopaminergic neuron differentiation score” value in assay [2] (library: LOPAC) is inactive: 1.
The corresponding values for `NC(=O)c1cccc(N)c1` [3-aminobenzamide] are inactive: 0 and inactive: 0.
As to `NC(Cc1cc(I)c(Oc2cc(I)c(O)c(I)c2)c(I)c1)C(=O)O` (stereo unspecified) [Thyroxine (L)], in assay [1] (library: Prestwick), the neuronal differentiation score was inactive: 0. Further, the “dopaminergic neuron differentiation score” value in assay [2] (library: Prestwick) is inactive: 0.
Turning to `CC1Nc2ccc(Cl)cc2S(=O)(=O)N1` (stereo unspecified), the neuronal differentiation score in assay [1] (library: Tocriscreen) is inactive: -1. Further, the “dopaminergic neuron differentiation score” value in assay [2] (library: Tocriscreen) was inactive: 0.
As to `CN(C)CC/C=C1\c2ccccc2CSc2ccccc21` [Dosulepin hydrochloride], the neuronal differentiation score in assay [1] (library: Prestwick) is inactive: 0. In addition, the “dopaminergic neuron differentiation score” value in assay [2] (library: Prestwick) is inactive: 0.
Take `CN1C(=O)C(Cc2c[nH]c3ccccc23)NC1=S` (stereo unspecified) [Necrostatin-1]: in assay [1] (library: Tocriscreen), the neuronal differentiation score was inactive: 0. Further, the “dopaminergic neuron differentiation score” value in assay [2] (library: Tocriscreen) is inactive: 0.
In the case of `C=C/C(C)=C\CC1C(C)(O)CCC2C(C)(C)CCCC21C` (stereo unspecified), the neuronal differentiation score in assay [1] (library: Spectrum) is inactive: 0. In assay [2] (library: Spectrum), the “dopaminergic neuron differentiation score” value was inactive: 0.
Turning to `Cc1nn(C)c2nc(NNC(=O)Nc3cc(Cl)nc(Cl)c3)cc(C(C)C)c12`, the neuronal differentiation score in assay [1] (library: Tocriscreen) was inactive: 0. Besides, the “dopaminergic neuron differentiation score” value in assay [2] (library: Tocriscreen) was inactive: 0.
Turning to `O=C(O)c1cc2cc(F)ccc2[nH]1` [5-Fluoroindole-2-carboxylic acid], the neuronal differentiation score in assay [1] (library: LOPAC) is inactive: 0. For the same molecule, the “dopaminergic neuron differentiation score” value in assay [2] (library: LOPAC) is inactive: 0.
On to `COc1cc(O)c(C(=O)c2ccccc2)cc1S(=O)(=O)O`, for which the neuronal differentiation score in assay [1] (library: Spectrum) was inactive: 0. For the same molecule, in assay [2] (library: Spectrum), the “dopaminergic neuron differentiation score” value was inactive: 0.
With `CC(C)C1C2CCC(C2)C1N` (stereo unspecified), the neuronal differentiation score in assay [1] (library: Tocriscreen) was inactive: 0. Moreover, in assay [2] (library: Tocriscreen), the “dopaminergic neuron differentiation score” value is inactive: 0.
With `CCNC(=O)[C@H]1O[C@@H](n2cnc3c(N)nc(NCCc4ccc(CCC(=O)O)cc4)nc32)[C@H](O)[C@@H]1O`, the neuronal differentiation score in assay [1] (library: LOPAC) was inactive: 0. In addition, in assay [2] (library: LOPAC), the “dopaminergic neuron differentiation score” value was inactive: 0.
On to `CCN(CC)CCNC(=O)c1cc(Cl)c(N)cc1OC`, for which, in assay [1] (library: Spectrum), the neuronal differentiation score is inactive: 1. Also, the “dopaminergic neuron differentiation score” value in assay [2] (library: Spectrum) is inactive: 0.
For the molecule `CC1=C(/C=C/C(C)=C/C=C/C(C)=C\C(=O)O)C(C)(C)CCC1` [Isotretinoin], the neuronal differentiation score in assay [1] (library: Prestwick) is inactive: -2. Also, the “dopaminergic neuron differentiation score” value in assay [2] (library: Prestwick) is inactive: 0.
`CCCC(CCC)C(=O)O` [Valproic acid]: the neuronal differentiation score in assay [1] (library: Prestwick) is inactive: 0. In assay [2] (library: Prestwick), the “dopaminergic neuron differentiation score” value was inactive: 0.
With `O=C(COc1ccc(Cl)cc1)N1CCN(Cc2ccc3c(c2)OCO3)CC1`, the neuronal differentiation score in assay [1] (library: Spectrum) is inactive: 0. Further, the “dopaminergic neuron differentiation score” value in assay [2] (library: Spectrum) is inactive: 0.
Consider `OC(CCCN1CCN(c2ncc(F)cn2)CC1)c1ccc(F)cc1` (stereo unspecified), for which the neuronal differentiation score in assay [1] (library: Tocriscreen) is inactive: 0. The “dopaminergic neuron differentiation score” value in assay [2] (library: Tocriscreen) was inactive: 0.
In the case of `CC(C)Cc1ccc(C(C)C(=O)O)cc1` (stereo unspecified), in assay [1] (library: Spectrum), the neuronal differentiation score was inactive: 0. Besides, the “dopaminergic neuron differentiation score” value in assay [2] (library: Spectrum) is inactive: 0.
As to `O=C(O)CCCCCCCC(=O)O` [Azelaic acid], in assay [1] (library: LOPAC), the neuronal differentiation score was inactive: 0. Moreover, the “dopaminergic neuron differentiation score” value in assay [2] (library: LOPAC) is inactive: 0.
On to `Fc1ccc(C(c2ccc(F)cc2)N2CCN(C/C=C/c3ccccc3)CC2)cc1`, for which, in assay [1] (library: Spectrum), the neuronal differentiation score is inactive: 0. In addition, in assay [2] (library: Spectrum), the “dopaminergic neuron differentiation score” value was inactive: 0.
As to `CC(=O)N[C@@H](CC(C)C)C(=O)O` [N-Acetyl-L-leucine], in assay [1] (library: Prestwick), the neuronal differentiation score was inactive: 0. The “dopaminergic neuron differentiation score” value in assay [2] (library: Prestwick) was inactive: 0.
`NCC=CC(=O)O` (stereo in doubt) [cis-4-Aminocrotonic acid]: the neuronal differentiation score in assay [1] (library: LOPAC) was active: 2. Also, the “dopaminergic neuron differentiation score” value in assay [2] (library: LOPAC) is inactive: 0.
For `C[C@@H]1O[C@@H](O[C@H]2[C@H](Oc3cc(O)c4c(c3)O[C@H](c3ccc(O)cc3)CC4=O)O[C@H](CO)[C@@H](O)[C@@H]2O)[C@H](O)[C@H](O)[C@H]1O` [Naringin hydrate], the neuronal differentiation score in assay [1] (library: Phytochemical) is inactive: 0. Besides, in assay [2] (library: Phytochemical), the “dopaminergic neuron differentiation score” value was inactive: 0.
As for `NC(Cn1ccc(=O)c(O)c1)C(=O)O` (stereo unspecified) [Mimosine], in assay [1] (library: Phytochemical), the neuronal differentiation score was inactive: -1. The “dopaminergic neuron differentiation score” value in assay [2] (library: Phytochemical) was inactive: 0.
Consider `Cc1cc2nc3c(=O)[nH]c(=O)nc-3n(CC(O)C(O)C(O)CO)c2cc1N(C)C` (stereo unspecified) [roseoflavin], for which the neuronal differentiation score in assay [1] (library: Natural) was inactive: 0. In addition, the “dopaminergic neuron differentiation score” value in assay [2] (library: Natural) is inactive: 0.
As to `CCCCC1(COC(=O)CCC(=O)O)C(=O)N(c2ccccc2)N(c2ccccc2)C1=O` [Suxibuzone], the neuronal differentiation score in assay [1] (library: Prestwick) was inactive: 0. For the same molecule, the “dopaminergic neuron differentiation score” value in assay [2] (library: Prestwick) was inactive: 0.
Turning to `CCN1CCC[C@H]1CNC(=O)c1c(OC)ccc(Br)c1OC` [Remoxipride hydrochloride], in assay [1] (library: Tocriscreen), the neuronal differentiation score was inactive: 0. Further, in assay [2] (library: Tocriscreen), the “dopaminergic neuron differentiation score” value is inactive: 1.
On to `CC(C)(C)c1cc(/C=C(\C#N)C(N)=S)cc(C(C)(C)C)c1O` [Tyrphostin AG 879], for which the neuronal differentiation score in assay [1] (library: LOPAC) was inactive: 0. Further, in assay [2] (library: LOPAC), the “dopaminergic neuron differentiation score” value was inactive: 0.
Consider `C=CCOc1ccccc1OCC(O)CNC(C)C` (stereo unspecified) [Oxprenolol hydrochloride], for which the neuronal differentiation score in assay [1] (library: Prestwick) is inactive: 0. The “dopaminergic neuron differentiation score” value in assay [2] (library: Prestwick) is inactive: 0.
As to `C=CCOC(Cn1ccnc1)c1ccc(Cl)cc1Cl` (stereo unspecified), the neuronal differentiation score in assay [1] (library: Spectrum) was inactive: 0. The “dopaminergic neuron differentiation score” value in assay [2] (library: Spectrum) was inactive: 0.
With `Nc1nc(=O)c2c([nH]1)NC[C@@H](CNc1ccc(C(=O)N[C@@H](CCC(=O)O)C(=O)O)cc1)N2C=O` [Folinic acid calcium salt], in assay [1] (library: Prestwick), the neuronal differentiation score is inactive: 0. Also, the “dopaminergic neuron differentiation score” value in assay [2] (library: Prestwick) was inactive: 0.
